Results are given in words; binding and its absence hold for the method and conditions named. For part of these data: In cells and extracts the contact can be indirect. Some results given as binding are weak or reduced against the parent protein; the word gives no strength.

The chains behind the UniProt entries cited, without tags or fusion partners.
UniProt Q01196: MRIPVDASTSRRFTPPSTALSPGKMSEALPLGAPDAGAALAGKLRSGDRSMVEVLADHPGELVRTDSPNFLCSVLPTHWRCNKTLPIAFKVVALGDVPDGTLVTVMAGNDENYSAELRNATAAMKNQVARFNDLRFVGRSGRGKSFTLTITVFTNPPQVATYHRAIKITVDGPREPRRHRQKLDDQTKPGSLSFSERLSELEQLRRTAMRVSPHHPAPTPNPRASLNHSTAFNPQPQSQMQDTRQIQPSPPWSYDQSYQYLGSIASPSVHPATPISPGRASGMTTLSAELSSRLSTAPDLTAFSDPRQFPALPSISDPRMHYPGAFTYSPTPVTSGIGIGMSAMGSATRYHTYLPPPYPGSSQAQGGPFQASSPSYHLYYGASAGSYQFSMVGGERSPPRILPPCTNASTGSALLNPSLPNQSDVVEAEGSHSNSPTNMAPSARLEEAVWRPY
UniProt P35711: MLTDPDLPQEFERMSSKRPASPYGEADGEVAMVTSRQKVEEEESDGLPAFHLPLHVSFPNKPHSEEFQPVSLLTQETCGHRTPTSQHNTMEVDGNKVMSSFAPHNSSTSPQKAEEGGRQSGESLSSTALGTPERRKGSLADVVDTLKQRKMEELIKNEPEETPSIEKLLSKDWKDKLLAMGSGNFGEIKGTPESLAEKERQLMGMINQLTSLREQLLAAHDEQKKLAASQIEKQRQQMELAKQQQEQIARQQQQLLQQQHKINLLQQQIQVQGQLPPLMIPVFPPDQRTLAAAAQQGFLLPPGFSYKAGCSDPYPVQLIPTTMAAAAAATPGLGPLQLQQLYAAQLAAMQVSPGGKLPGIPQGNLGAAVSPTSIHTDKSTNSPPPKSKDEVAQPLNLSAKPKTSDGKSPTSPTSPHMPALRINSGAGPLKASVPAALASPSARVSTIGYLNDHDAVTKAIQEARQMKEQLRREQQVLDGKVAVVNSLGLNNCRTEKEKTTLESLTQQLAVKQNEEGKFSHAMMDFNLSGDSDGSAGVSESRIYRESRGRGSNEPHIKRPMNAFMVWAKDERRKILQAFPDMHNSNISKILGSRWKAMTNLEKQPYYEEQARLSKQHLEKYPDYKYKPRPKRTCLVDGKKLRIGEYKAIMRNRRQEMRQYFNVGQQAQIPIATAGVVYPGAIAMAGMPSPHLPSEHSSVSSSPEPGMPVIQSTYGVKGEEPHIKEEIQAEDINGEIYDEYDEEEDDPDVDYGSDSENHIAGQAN
UniProt P35712: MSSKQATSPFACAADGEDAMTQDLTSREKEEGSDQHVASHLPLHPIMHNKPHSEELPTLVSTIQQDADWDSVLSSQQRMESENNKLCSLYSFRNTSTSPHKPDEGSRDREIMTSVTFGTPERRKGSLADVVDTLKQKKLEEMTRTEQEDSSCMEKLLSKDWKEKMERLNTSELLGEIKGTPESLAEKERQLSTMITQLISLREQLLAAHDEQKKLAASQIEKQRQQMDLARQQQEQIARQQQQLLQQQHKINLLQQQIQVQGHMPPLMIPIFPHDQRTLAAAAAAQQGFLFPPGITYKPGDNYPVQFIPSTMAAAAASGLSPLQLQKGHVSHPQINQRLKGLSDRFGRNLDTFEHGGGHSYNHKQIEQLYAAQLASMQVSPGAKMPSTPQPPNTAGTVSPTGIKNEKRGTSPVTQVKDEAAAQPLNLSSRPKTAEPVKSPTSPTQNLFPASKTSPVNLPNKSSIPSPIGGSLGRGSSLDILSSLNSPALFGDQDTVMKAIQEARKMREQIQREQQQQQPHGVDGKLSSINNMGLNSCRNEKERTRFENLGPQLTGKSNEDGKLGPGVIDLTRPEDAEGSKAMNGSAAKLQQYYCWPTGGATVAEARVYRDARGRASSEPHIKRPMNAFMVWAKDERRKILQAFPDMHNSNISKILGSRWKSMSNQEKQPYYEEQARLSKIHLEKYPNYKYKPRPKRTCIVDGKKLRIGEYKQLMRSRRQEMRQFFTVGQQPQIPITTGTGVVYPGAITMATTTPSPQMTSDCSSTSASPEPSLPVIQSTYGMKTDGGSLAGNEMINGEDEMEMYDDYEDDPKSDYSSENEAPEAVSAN
UniProt P48436: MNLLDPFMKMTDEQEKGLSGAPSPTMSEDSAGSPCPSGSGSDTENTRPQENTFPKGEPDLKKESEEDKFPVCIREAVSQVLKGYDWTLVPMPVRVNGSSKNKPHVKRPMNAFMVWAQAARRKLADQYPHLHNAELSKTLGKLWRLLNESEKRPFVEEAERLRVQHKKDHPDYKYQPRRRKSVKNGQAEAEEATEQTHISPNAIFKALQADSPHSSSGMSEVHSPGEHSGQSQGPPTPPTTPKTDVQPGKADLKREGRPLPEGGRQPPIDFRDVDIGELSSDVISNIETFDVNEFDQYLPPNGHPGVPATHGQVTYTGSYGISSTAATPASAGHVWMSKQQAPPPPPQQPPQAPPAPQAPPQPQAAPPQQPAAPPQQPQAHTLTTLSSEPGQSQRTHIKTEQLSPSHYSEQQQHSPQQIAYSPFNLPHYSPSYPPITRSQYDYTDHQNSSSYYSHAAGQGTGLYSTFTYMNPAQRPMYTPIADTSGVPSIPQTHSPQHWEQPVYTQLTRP

One test deals with GAL4–Runx1 FL (full-length Runx1) (UniProt Q01196). In words: two-hybrid; Checkmate Mammalian Two-Hybrid System; GAL4–Runx1 constructs and VP16–Sox proteins with a luciferase reporter with GAL4 binding sites, transfected into HuH-7 cells.
VP16–Sox5 (from UniProt P35711 1-763): the binding result is given as “binds”.
Still for that read-out and setting: as for VP16–Sox6 (from UniProt P35712 1-828), the entry is “binds”; as for VP16–Sox9 (from UniProt P48436 1-509), “binds”.

A further test concerns the target Runx1 overexpressed in HEK293 cells (UniProt Q01196). In words: co-IP; HEK293 cells overexpressing Runx1 and the Sox proteins (Supplementary Fig. S3).
Regarding “Sox5 overexpressed in HEK293 cells (from UniProt P35711 1-763)”, the binding entry was “binds”.
The same measure, in the same setting: the entry for “Sox6 overexpressed in HEK293 cells (from UniProt P35712 1-828)” is “binds”.
Still for that read-out and setting: as for “Sox9 overexpressed in HEK293 cells (from UniProt P48436 1-509)”, the entry is “binds”.

The target in another test is Runt-related transcription factor 1 (Runx1), endogenous in human articular chondrocytes (human (endogenous in human articular chondrocytes)) (UniProt Q01196). The test can be described thus: co-IP; whole cell lysates of human articular chondrocytes (M-PER kit); endogenous proteins; Catch and Release kit; IP with one antibody, immunoblot with the other. Background: Immunoblotting shows a protein as a band on a membrane.
In the case of “Sox5, endogenous in human articular chondrocytes (from UniProt P35711 1-763)”, the binding entry is recorded as “binds”.
As for “Sox6, endogenous in human articular chondrocytes (from UniProt P35712 1-828)”, the binding entry is given as “binds”.
As for “Sox9, endogenous in human articular chondrocytes (from UniProt P48436 1-509)”, the binding result was “binds”.
